According to the supplement of paper PMC10849652:
The other results are listed elsewhere or left out.

Sequences of proteins named here, by UniProt entry; tags and fusion partners are left off. A change or cut given only in a name is not applied to a line headed by its entry.
UniProt Q96CG3: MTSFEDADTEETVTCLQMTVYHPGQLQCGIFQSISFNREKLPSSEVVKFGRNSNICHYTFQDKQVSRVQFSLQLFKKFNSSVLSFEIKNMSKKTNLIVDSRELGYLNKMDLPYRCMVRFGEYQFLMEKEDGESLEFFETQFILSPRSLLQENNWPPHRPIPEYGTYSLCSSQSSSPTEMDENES
UniProt Q8IYN2: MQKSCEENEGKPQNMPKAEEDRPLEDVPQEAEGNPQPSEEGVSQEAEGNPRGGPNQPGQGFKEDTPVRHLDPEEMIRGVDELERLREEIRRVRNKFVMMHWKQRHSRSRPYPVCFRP
UniProt B5MCY1: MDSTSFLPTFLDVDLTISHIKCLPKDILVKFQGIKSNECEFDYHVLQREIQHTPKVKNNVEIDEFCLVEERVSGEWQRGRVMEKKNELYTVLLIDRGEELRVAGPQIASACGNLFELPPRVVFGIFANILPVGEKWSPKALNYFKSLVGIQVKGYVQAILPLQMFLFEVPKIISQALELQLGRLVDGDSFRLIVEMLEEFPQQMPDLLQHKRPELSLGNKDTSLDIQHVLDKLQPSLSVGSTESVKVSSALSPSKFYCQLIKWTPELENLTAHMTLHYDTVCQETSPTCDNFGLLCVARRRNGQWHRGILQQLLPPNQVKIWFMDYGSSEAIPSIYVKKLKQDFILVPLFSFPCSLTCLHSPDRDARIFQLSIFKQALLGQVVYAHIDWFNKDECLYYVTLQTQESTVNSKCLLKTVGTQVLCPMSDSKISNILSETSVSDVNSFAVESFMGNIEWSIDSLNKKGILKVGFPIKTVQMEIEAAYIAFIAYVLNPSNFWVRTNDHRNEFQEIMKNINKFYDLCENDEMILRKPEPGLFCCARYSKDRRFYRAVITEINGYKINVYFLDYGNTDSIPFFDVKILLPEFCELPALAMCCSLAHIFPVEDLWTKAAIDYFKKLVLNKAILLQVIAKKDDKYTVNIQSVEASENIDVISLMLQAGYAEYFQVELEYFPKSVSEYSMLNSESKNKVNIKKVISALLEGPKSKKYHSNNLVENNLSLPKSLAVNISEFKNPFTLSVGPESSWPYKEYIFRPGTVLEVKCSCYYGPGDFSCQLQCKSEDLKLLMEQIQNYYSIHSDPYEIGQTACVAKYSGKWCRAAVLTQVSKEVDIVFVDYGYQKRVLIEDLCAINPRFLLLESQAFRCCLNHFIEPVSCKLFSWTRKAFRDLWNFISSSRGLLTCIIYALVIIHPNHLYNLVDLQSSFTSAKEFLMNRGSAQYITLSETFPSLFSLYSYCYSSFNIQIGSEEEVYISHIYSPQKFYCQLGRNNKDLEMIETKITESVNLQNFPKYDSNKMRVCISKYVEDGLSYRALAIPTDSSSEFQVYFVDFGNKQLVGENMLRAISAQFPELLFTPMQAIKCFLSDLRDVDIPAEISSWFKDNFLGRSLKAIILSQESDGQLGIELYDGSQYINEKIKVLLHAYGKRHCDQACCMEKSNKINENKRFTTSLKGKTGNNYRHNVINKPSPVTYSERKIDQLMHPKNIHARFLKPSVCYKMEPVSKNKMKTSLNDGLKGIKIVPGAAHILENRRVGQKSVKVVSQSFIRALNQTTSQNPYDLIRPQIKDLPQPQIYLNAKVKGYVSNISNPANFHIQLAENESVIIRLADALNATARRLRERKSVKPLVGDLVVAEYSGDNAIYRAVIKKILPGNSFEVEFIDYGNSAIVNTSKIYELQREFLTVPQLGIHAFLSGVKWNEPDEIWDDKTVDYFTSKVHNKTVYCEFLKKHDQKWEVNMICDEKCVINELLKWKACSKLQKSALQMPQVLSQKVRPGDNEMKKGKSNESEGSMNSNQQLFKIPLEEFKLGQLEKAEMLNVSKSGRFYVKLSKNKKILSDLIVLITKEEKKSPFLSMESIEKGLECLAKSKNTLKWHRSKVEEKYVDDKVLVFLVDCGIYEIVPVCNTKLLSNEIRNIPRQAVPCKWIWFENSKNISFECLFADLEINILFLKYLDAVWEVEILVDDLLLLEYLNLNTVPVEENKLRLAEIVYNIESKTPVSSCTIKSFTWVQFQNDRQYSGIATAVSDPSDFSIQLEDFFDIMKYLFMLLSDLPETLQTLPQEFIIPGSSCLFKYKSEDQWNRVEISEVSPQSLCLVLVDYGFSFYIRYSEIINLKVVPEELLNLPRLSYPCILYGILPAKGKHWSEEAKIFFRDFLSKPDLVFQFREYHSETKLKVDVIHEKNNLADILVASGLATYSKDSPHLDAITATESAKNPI
UniProt Q13428: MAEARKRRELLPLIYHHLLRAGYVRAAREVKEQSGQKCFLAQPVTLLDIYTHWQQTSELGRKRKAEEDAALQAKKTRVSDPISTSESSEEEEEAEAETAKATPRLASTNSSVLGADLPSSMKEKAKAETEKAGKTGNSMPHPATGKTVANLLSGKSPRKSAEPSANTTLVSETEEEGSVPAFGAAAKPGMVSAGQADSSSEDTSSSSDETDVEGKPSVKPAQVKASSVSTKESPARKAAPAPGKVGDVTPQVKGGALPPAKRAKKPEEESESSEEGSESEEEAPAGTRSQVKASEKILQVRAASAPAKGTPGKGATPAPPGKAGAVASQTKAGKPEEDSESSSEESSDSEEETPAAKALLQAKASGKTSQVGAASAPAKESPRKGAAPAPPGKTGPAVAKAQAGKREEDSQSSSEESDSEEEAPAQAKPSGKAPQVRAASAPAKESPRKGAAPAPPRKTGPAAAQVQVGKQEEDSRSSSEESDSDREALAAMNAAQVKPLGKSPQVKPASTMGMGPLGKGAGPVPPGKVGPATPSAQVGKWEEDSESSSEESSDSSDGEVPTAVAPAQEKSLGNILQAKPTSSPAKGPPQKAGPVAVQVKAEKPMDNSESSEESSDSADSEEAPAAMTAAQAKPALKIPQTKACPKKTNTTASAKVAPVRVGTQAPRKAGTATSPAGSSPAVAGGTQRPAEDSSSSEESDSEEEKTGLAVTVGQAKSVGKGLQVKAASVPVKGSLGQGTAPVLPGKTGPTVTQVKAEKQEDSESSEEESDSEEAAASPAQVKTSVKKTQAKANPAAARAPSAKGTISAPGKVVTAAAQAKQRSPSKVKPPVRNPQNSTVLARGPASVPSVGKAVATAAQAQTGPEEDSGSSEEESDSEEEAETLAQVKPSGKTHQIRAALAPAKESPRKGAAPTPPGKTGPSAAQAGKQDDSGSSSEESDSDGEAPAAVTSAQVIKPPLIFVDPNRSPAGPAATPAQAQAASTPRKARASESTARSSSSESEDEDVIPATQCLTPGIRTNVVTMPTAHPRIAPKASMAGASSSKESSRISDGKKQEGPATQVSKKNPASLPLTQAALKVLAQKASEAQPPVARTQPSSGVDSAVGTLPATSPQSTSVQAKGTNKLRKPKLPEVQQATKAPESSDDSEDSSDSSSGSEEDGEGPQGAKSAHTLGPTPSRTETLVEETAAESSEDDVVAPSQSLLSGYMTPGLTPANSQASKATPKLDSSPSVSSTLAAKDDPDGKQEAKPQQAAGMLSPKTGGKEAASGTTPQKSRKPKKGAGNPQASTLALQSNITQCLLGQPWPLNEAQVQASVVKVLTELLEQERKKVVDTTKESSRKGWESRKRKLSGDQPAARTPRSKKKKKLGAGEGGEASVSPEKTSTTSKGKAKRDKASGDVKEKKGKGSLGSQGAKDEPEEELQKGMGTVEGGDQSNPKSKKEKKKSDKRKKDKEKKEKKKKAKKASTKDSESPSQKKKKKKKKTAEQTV
UniProt Q9H5L6: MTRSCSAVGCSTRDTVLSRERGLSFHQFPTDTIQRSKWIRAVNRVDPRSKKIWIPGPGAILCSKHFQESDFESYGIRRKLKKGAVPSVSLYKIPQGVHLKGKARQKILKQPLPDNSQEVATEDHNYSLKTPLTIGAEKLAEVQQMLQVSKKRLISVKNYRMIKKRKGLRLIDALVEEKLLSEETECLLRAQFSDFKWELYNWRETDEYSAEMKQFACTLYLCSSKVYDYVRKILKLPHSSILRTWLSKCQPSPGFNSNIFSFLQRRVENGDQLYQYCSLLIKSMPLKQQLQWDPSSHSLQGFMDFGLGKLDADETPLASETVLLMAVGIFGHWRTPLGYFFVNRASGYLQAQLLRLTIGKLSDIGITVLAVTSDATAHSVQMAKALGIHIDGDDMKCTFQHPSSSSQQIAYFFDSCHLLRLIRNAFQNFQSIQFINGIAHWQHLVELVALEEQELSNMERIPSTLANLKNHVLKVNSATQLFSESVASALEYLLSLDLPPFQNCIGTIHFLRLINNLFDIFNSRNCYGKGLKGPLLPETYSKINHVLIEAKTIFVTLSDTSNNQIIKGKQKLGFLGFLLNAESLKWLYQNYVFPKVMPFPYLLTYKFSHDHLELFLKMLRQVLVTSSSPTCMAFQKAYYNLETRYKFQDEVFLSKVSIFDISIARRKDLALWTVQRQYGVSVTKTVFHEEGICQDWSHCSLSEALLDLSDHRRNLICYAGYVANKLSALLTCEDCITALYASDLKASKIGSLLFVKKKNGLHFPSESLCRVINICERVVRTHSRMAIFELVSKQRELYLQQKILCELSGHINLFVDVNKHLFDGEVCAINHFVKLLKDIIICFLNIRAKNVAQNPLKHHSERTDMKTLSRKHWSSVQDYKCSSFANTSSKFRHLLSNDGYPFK
UniProt Q9NQ88: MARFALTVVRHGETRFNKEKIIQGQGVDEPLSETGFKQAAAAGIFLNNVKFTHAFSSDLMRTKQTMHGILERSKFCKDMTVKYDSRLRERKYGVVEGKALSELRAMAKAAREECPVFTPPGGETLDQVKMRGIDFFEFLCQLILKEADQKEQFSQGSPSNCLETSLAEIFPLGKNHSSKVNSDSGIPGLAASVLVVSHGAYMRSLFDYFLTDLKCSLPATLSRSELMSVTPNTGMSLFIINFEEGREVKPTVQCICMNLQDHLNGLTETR
UniProt P10646, whole entry, looked up: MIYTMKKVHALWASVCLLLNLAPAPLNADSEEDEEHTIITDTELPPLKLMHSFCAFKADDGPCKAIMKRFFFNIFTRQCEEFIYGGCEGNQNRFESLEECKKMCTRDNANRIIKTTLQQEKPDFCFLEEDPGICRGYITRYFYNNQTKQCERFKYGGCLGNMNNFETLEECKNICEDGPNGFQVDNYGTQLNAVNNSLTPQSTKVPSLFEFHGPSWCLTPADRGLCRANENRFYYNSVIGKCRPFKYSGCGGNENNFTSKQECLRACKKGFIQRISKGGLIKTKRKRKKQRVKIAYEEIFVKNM
UniProt Q14188: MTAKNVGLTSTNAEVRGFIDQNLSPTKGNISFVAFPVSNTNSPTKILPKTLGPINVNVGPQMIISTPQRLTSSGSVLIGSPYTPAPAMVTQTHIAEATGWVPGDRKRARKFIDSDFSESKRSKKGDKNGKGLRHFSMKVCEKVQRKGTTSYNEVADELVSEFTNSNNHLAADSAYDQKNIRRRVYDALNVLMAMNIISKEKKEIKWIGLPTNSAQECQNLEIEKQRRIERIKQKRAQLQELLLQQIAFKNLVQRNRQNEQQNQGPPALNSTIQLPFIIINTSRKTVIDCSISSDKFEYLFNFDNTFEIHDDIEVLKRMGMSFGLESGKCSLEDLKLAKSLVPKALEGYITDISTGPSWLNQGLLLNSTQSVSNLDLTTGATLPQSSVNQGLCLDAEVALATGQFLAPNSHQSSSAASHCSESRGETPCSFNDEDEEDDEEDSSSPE
UniProt Q5JUR7: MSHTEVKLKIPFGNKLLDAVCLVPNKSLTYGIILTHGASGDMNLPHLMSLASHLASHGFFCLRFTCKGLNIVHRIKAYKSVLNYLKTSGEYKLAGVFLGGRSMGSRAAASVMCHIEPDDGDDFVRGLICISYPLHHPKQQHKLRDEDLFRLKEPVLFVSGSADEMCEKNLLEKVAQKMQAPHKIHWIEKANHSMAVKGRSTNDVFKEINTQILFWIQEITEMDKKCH
UniProt Q9P2M4: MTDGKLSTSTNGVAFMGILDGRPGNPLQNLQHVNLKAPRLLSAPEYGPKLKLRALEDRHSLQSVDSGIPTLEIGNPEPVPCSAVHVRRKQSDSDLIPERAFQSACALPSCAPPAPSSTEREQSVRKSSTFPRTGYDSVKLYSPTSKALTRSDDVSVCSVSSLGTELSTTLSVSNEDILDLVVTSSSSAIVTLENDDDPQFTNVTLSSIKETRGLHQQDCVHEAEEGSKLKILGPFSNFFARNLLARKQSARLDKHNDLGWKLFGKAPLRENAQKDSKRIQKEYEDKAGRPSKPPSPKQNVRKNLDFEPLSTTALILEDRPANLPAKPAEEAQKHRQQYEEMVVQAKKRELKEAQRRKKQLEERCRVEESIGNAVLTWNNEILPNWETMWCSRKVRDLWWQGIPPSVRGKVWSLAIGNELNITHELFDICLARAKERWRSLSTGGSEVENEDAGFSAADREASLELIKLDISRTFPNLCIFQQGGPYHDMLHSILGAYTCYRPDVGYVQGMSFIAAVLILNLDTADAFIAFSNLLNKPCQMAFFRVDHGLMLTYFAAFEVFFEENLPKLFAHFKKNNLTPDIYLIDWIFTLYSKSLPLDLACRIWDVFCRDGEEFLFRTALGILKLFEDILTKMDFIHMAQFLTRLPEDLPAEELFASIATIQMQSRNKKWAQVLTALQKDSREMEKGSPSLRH

Columns and labels:
Experiment in all cases: log2 fold change, soluble protein after heating vs DMSO (PISA); higher = thermal stabilisation; K562 cells, 10 uM, 30 min; active = over 0.2 and 3.5 SD of the protein, either way, in both replicates (recomputed)
volasertib = compound: CC[C@@H]1C(=O)N(C)c2cnc(Nc3ccc(C(=O)N[C@H]4CC[C@H](N5CCN(CC6CC6)CC5)CC4)cc3OC)nc2N1C(C)C [volasertib]
Summary of the method: (§1)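 For each measurement, 10 μM compound was applied for 30 min to K562 cells at 2×10^6 cells/mL. Aliquots were heated for 3 min across 48°C-58°C, pooled, and extracted in PBS with 0.5% NP-40 at 4°C; the supernatant after 21,000xg for 90 min was soluble protein. This was quantified by TMTpro 16plex LC-MS/MS with channel sums equalised, and thermal stability was reported relative to control samples from duplicates, on a log2 fold-change scale.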

epoxomicin = compound: CC[C@H](C)[C@@H](C(=O)N[C@@H]([C@@H](C)O)C(=O)N[C@@H](CC(C)C)C(=O)[C@]1(CO1)C)NC(=O)[C@H]([C@@H](C)CC)N(C)C(=O)C [epoxomicin]
Summary of the method: as §1

[1] = compound: CCn1c(C(=O)N(C2CC2)C2CC2)cc2c3c(ncn3C)c(Nc3cc(C)n(C)n3)nc21
Summary of the method: as §1

[2] = compound: CCn1cc(-c2ccnc3[nH]c(-c4cccc(CN(C)C)c4)cc23)c(-c2ccc(NC(=O)N(C)C)cc2)n1
Summary of the method: as §1

[3] = compound: CN(C)CC(=O)Nc1ccc2[nH]c(=O)c3ccccc3c2c1
Summary of the method: as §1

[4] = compound: CN1CCC(CNc2ccc3ncc(-c4cccc(OC(F)(F)F)c4)n3n2)CC1
Summary of the method: as §1

sotrastaurin = compound: CN1CCN(c2nc(C3=C(c4c[nH]c5ccccc45)C(=O)NC3=O)c3ccccc3n2)CC1 [sotrastaurin]
Summary of the method: as §1

alvocidib = compound: CN1CC[C@H](c2c(O)cc(O)c3c(=O)cc(-c4ccccc4Cl)oc23)[C@H](O)C1 [alvocidib]
Summary of the method: as §1

[5] = compound: CNC(=O)C1=CC=CC=C1NC2=NC(=NC=C2Cl)NC3=C(C=C(C=C3)N4CCOCC4)OC
Summary of the method: as §1

defactinib = compound: CNC(=O)c1ccc(Nc2ncc(C(F)(F)F)c(NCc3nccnc3N(C)S(C)(=O)=O)n2)cc1 [defactinib]
Summary of the method: as §1

[6] = compound: COC(=O)[C@H](CCSC)NC(=O)C1=C(C=C(C=C1)NC[C@H](CS)N)C2=CC=CC=C2
Summary of the method: as §1

Tubastatin A = compound: CN1CCc2c(c3ccccc3n2Cc2ccc(C(=O)NO)cc2)C1 [Tubastatin A]
Summary of the method: as §1

[7] = compound: CC[C@H](C)N1C=C(C2=C(C=C(C=C21)C3=CN=C(C=C3)N4CCNCC4)C(=O)NCC5=C(C=C(NC5=O)C)C)C
Summary of the method: as §1

[8] = compound: CN1C2=C(C3=C1C(=O)N(N=C3)CC4=CC(=CC=C4)N)SC(=C2)S(=O)C
Summary of the method: as §1

saracatinib = compound: CN1CCN(CCOc2cc(OC3CCOCC3)c3c(Nc4c(Cl)ccc5c4OCO5)ncnc3c2)CC1 [saracatinib]
Summary of the method: as §1

[9] = compound: CNc1nc(-c2ccc3c(N)n[nH]c3c2)cc(N2C[C@@H](C(=O)NC3CCCCC3)CC[C@H]2C)n1
Summary of the method: as §1

[10] = compound: CC[C@@H]1C(=O)N(C)c2cnc(Nc3ccc(C(=O)NC4CCN(C)CC4)cc3OC)nc2N1C1CCCC1
Summary of the method: as §1

rucaparib = compound: CNCc1ccc(-c2[nH]c3cc(F)cc4c3c2CCNC4=O)cc1 [rucaparib]
Summary of the method: as §1

encorafenib = compound: COC(=O)N[C@@H](C)CNc1nccc(-c2cn(C(C)C)nc2-c2cc(Cl)cc(NS(C)(=O)=O)c2F)n1 [encorafenib]
Summary of the method: as §1

rosiglitazone = compound: CN(CCOC1=CC=C(C=C1)C[C@H]2C(=O)NC(=O)S2)C3=CC=CC=N3 (racemic) [rosiglitazone]
Summary of the method: as §1

Measured: log2 fold change

TIFA (UniProt Q96CG3)
inactive: volasertib 0.145 | epoxomicin -0.008 | [1] 0.223 | [2] 0.239 | [3] -0.156 | [4] -0.114 | sotrastaurin 0.046 | alvocidib -0.054 | [5] 0.133 | defactinib 0.133 | [6] -0.099

TCF25 (UniProt Q9BQ70)
inactive: volasertib -0.296 | epoxomicin 0.21 | [2] -0.125 | [3] -0.09 | [4] -0.155 | alvocidib 0.035 | Tubastatin A 0.111 | defactinib -0.06 | [6] -0.183

TGDS (UniProt O95455)
inactive: [7] 0.048 | [1] -0.011 | [2] -0.426 | [3] -0.267 | [8] -0.031 | [4] -0.224 | saracatinib 0.1 | sotrastaurin 0.078 | alvocidib 0.042 | Tubastatin A 0.07 | [5] 0.047 | defactinib 0.133 | [9] 0.02 | [6] 0.219

TBCK (UniProt Q8TEA7)
inactive: volasertib -0.051 | [7] -0.026 | [1] -0.006 | [2] 0.182 | [8] -0.023 | [4] -0.118 | saracatinib 0.073 | Tubastatin A 0.076 | [5] -0.041 | [9] -0.195

TCF3 isoform 2 (UniProt P15923)
inactive: [10] 0.202 | [2] 0.011 | [3] 0.03 | [4] -0.114 | alvocidib 0.03 | Tubastatin A 0.108 | defactinib -0.119 | rucaparib -0.104 | encorafenib 0.129 | [6] 0.139

TK1 (UniProt K7ERV3)
inactive: volasertib 0.055 | [7] -0.163 | epoxomicin 0.007 | [2] -0.014 | [3] 0.084 | [8] -0.024 | [4] 0.005 | saracatinib 0.037 | sotrastaurin 0.011 | Tubastatin A -0.013 | defactinib 0 | [9] -0.058 | [6] -0.003

TBC1D7 (UniProt Q9P0N9)
inactive: volasertib -0.367 | epoxomicin 0.16 | [1] -0.127 | rosiglitazone 0.185 | sotrastaurin -0.303 | [5] 0.098

TEX10 (UniProt Q9NXF1)
inactive: [10] 0.791 | [1] -0.156 | [2] -0.075 | rosiglitazone 0.301 | [4] 0.033 | sotrastaurin -0.16 | [5] -0.022 | rucaparib 0.573 | encorafenib -0.513

TCEAL9 (UniProt Q9UHQ7)
inactive: epoxomicin 1.1 | sotrastaurin -0.302

TEDC2 (UniProt Q7L2K0)
inactive: [8] 0.068 | saracatinib 0.063 | Tubastatin A 0.028 | [9] 0.053

TCEAL8 (UniProt Q8IYN2)
inactive: [7] 0.027 | [1] -0.068 | [2] -0.123 | [4] 0.012 | [5] -0.08

TBC1D2 (UniProt Q9BYX2)
inactive: [10] -0.055 | epoxomicin -0.238 | [2] 0.087 | [4] -0.019 | rucaparib 0.264 | encorafenib 0.122

TDRD15 (UniProt B5MCY1)
inactive: [10] -0.241 | [1] -0.06 | [2] 0.149 | [3] -0.176 | [8] 0.129 | [4] -0.288 | saracatinib -0.518 | sotrastaurin 0.099 | alvocidib 0.097 | Tubastatin A 0 | [5] -0.008 | defactinib -0.105 | rucaparib -0.161 | [9] -0.18 | encorafenib 0.002 | [6] -0.436

TDP1 (UniProt Q9NUW8)
inactive: [5] -0.041

TCF4 isoform 3 (UniProt P15884)
inactive: volasertib -0.124 | [2] 0.01 | [8] -0.129 | [4] -0.043 | saracatinib 0.116 | alvocidib -0.142 | Tubastatin A 0.066 | [9] 0.057

TCTN3 (UniProt Q6NUS6)
inactive: volasertib -0.121 | [7] -0.075 | epoxomicin 0.012 | rosiglitazone 0 | sotrastaurin 0.081

TCOF1 isoform 3 (UniProt Q13428)
inactive: [10] 0.001 | epoxomicin -0.352 | [2] 0.155 | [4] -0.436 | sotrastaurin 0.326 | Tubastatin A 0.054 | [5] -0.007 | rucaparib -0.065 | encorafenib -0.084

THAP9 (UniProt Q9H5L6)
inactive: [7] -0.167 | [8] -0.039 | saracatinib 0.039 | [9] 0.186

TIGAR (UniProt Q9NQ88)
inactive: [2] 0.177 | rosiglitazone 0.022 | [4] -0.05

THAP12 (UniProt O43422)
inactive: [7] 0.028 | [1] -0.154 | [2] -0.275 | [4] 0.266 | alvocidib -0.163 | [5] 0.082

TFPI (UniProt P10646)
inactive: [7] -0.081 | epoxomicin 0.021 | [1] -0.103 | [2] 0.086 | [3] -0.056 | rosiglitazone -0.103 | [8] 0.103 | [4] 0.379 | saracatinib -0.049 | sotrastaurin 0.135 | alvocidib 0.082 | Tubastatin A 0.062 | [5] 0 | defactinib -0.021 | [9] -0.024 | [6] 0.045

TDRD7 (UniProt Q8NHU6)
inactive: [10] 0.129 | epoxomicin 0.411 | [1] -0.042 | [2] 0.054 | [3] 0.104 | [8] -0.043 | [4] -0.013 | saracatinib -0.012 | alvocidib -0.028 | [5] -0.032 | defactinib -0.146 | rucaparib 0.096 | [9] -0.037 | encorafenib 0.017 | [6] 0.025

TCF20 (UniProt Q9UGU0)
inactive: epoxomicin -0.122 | [2] -0.08 | rosiglitazone 0.129 | [4] -0.158 | alvocidib 0.145

TCEAL1 isoform 2 (UniProt Q15170)
inactive: volasertib -0.106 | [2] 0.081 | [3] 0.069 | [4] -0.194 | sotrastaurin -0.008 | alvocidib 0.03 | Tubastatin A 0.015 | defactinib -0.063 | [6] 0.116

TESMIN (UniProt Q9Y4I5)
inactive: [7] 0.063

Reprinted at random: two records from the list.
TDRD7 (UniProt Q8NHU6)
inactive: [10] 0.129 | epoxomicin 0.411 | [1] -0.042 | [2] 0.054 | [3] 0.104 | [8] -0.043 | [4] -0.013 | saracatinib -0.012 | alvocidib -0.028 | [5] -0.032 | defactinib -0.146 | rucaparib 0.096 | [9] -0.037 | encorafenib 0.017 | [6] 0.025

TCEAL1 isoform 2 (UniProt Q15170)
inactive: volasertib -0.106 | [2] 0.081 | [3] 0.069 | [4] -0.194 | sotrastaurin -0.008 | alvocidib 0.03 | Tubastatin A 0.015 | defactinib -0.063 | [6] 0.116

Following part:

TENM4 (UniProt Q6N022)
inactive: volasertib -0.032 | epoxomicin -0.087 | [2] -0.038 | [8] 0.179 | [4] -0.005 | saracatinib -0.196 | alvocidib 0.051 | [9] 0.11

TBX1 isoform 3 (UniProt O43435)
inactive: volasertib -0.059 | [7] 0.067

TFDP2 (UniProt Q14188)
inactive: [10] -0.071 | epoxomicin -0.061 | rosiglitazone 0.166 | sotrastaurin 0.253 | alvocidib -0.053 | Tubastatin A -0.016 | rucaparib 0.2 | encorafenib -0.179

TFE3 (UniProt P19532)
inactive: epoxomicin 0.063 | [1] -0.08 | rosiglitazone 0.137 | sotrastaurin -0.416 | Tubastatin A 0.014 | [5] 0.006

TEX2 isoform 2 (UniProt Q8IWB9)
inactive: volasertib -0.036 | epoxomicin 0.074 | [1] -0.049 | [2] -0.034 | [3] 0.009 | rosiglitazone 0.046 | [8] -0.084 | [4] 0.038 | saracatinib 0.093 | sotrastaurin 0.018 | alvocidib -0.133 | Tubastatin A 0.075 | [5] -0.072 | defactinib -0.108 | [9] -0.044 | [6] 0.02

TEX30 (UniProt Q5JUR7)
active: [4] -0.601
inactive: volasertib -0.221 | [7] -0.044 | epoxomicin 0.007 | [2] 0.079 | [3] 0.075 | [8] 0.046 | saracatinib -0.065 | Tubastatin A 0.022 | [5] 0.015 | defactinib -0.096 | [9] -0.026 | [6] 0.017

TBC1D14 (UniProt Q9P2M4)
inactive: volasertib -0.399 | epoxomicin -0.07 | [1] -0.056 | [2] -0.077 | [3] 0.118 | [4] -0.201 | sotrastaurin 0.08 | Tubastatin A -0.015 | [5] -0.246 | defactinib -0.383 | [6] 0.052
